Experimental data reported in patent publication US20220003782A1 (METAFORA BIOSYSTEMS, published 2022).
Results are given in words; binding and its absence hold for the method and conditions named. Some binding calls cover weakened binding; strength is not graded here. Sequences can lack the tags named with a protein.

Legend:
[1] = molecular target: T1, sodium-dependent multivitamin transporter / solute carrier family 5 member 6 (SMVT/SLC5A6) (human) (UniProt Q9Y289); experiment: flow cytometry on HEK 293T cells with siLUC or siSMVT
T1 sequence: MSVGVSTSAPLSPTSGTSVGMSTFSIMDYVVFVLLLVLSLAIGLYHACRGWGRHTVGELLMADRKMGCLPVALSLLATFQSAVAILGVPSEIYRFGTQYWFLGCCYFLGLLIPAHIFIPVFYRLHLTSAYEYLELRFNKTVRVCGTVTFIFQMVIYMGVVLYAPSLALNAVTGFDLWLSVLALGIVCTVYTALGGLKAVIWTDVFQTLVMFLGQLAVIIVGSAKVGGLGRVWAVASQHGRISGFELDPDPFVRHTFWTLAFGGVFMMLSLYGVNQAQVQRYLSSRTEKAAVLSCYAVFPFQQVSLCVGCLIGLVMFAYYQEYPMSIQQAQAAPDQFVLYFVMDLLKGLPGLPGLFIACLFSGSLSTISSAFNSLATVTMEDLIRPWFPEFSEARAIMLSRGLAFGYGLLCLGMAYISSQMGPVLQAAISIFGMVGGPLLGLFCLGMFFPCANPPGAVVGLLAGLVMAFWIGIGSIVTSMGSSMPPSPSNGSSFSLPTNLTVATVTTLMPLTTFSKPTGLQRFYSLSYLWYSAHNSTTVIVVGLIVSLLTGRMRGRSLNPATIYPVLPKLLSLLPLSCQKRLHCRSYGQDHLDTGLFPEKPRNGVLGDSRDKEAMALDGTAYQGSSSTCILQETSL

[2] = molecular target: T1, sodium-dependent multivitamin transporter / solute carrier family 5 member 6 (SMVT/SLC5A6) (human); experiment: flow cytometry on HEK293T cells with siLUC or siSMVT A

B1: PERV-B RBD ligand fused to a mouse Fc fragment (SEQ ID NO: 13) (Fc fusion)
chain: KRLIDSSNPHRPLSLTWLIIDPDTGVTVNSTRGVAPRGTWWPELHFCLRLINPAVKSTPPNLVRSYGFYCCPGTEKEKYCGGSEESFCRRWSCVTSNDGDWKWPISLQDRVKFSFVNSGPGKYKVMKLYKDKSCSPSDLDYLKISFTEKGKQENIQKWINGMSWGIVFYKYGGGAGSTLTIRLRIEAGTEPPVAVGSVDVPRDCGCKPCICTVPEVSSVFIFPPKPKDVLTITLTPKVTCVVVDISKDDPEVQFSWFVDDVEVHTAQTQPREEQFNSTFRSVSELPIMHQDWLNGKEFKCRVNSAAFPAPIEKTISKTKGRPKAPQVYTIPPPKEQMAKDKVSLTCMITDFFPEDITVEWQWNGQPAENYKNTQPIMDTDGSYFVYSKLNVQKSNWEAGNTFTCSVLHEGLHNHHTEKSLSHSPGK
**Q.** Which binding [1] does the source give for B1 here?
**A.** binds

**Q.** What about the binding [2] of the same binder?
**A.** binds
